According to paper PMC12061849:
These are yes or no findings as the source states them, for the method shown. In cells and extracts the contact can be indirect. Some results given as binding are weak or reduced against the parent protein; the word gives no strength.

Protein sequences, listed by entry. Tags and fused reporters are not part of them.
UniProt Q09472: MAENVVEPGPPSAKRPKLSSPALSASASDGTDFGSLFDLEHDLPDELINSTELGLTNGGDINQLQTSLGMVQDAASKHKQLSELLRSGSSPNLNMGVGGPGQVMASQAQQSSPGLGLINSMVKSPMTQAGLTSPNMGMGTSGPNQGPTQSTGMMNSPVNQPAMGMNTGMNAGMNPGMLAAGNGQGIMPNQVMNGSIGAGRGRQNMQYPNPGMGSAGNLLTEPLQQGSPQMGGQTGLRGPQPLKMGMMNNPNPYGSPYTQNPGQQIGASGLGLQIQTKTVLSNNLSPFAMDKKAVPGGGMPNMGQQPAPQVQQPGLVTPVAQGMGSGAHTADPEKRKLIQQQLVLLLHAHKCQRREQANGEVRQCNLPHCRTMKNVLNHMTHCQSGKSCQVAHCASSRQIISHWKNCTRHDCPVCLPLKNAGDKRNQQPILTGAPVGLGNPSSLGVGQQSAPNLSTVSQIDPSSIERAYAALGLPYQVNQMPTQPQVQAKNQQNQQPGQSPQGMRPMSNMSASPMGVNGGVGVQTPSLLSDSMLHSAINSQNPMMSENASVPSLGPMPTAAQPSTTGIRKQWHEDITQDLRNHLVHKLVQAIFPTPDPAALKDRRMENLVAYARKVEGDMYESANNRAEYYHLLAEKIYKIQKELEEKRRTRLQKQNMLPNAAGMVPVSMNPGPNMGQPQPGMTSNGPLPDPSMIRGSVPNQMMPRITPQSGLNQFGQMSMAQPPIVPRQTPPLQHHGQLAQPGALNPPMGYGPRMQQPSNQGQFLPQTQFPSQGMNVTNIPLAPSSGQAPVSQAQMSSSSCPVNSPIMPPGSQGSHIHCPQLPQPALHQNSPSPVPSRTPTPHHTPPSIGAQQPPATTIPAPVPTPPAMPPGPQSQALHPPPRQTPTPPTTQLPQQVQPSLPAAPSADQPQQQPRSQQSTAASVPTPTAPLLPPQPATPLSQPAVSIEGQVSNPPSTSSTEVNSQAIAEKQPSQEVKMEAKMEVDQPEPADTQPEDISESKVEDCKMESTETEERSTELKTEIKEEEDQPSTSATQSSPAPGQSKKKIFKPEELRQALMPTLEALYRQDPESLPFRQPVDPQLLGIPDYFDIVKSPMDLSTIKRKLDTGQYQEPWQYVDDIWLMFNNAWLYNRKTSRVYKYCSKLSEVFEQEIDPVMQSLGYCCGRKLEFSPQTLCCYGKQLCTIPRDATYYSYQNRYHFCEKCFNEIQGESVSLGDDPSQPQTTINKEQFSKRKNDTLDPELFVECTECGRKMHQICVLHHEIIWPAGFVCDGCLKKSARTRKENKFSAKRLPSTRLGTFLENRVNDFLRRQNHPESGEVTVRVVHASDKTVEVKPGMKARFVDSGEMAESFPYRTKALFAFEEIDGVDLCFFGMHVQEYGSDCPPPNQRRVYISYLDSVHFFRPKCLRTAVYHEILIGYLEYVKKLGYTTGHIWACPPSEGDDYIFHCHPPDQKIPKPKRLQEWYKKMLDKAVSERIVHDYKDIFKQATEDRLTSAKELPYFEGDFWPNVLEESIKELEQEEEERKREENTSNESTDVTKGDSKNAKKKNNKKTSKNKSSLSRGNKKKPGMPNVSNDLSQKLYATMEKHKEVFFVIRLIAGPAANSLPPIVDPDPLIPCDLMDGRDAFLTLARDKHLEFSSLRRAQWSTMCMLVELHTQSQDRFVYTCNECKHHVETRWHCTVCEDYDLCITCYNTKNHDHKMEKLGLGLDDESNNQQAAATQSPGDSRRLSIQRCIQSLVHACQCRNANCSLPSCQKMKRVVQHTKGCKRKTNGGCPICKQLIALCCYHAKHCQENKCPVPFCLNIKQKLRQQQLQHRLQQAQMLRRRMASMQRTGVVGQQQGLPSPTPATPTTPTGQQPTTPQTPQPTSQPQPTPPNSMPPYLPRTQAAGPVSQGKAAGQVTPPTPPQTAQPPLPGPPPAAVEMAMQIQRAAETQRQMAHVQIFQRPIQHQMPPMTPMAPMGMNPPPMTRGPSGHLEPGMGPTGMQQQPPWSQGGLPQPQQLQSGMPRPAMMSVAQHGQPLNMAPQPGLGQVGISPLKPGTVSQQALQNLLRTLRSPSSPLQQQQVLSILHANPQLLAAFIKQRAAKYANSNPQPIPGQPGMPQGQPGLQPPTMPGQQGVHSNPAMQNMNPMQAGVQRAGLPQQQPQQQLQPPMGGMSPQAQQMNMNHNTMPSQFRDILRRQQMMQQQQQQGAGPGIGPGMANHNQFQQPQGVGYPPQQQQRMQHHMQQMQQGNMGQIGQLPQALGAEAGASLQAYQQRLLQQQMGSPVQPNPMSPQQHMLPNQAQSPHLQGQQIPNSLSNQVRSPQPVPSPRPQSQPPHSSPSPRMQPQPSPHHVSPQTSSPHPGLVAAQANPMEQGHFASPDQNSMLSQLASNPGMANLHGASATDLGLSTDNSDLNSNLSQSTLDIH
UniProt Q92769: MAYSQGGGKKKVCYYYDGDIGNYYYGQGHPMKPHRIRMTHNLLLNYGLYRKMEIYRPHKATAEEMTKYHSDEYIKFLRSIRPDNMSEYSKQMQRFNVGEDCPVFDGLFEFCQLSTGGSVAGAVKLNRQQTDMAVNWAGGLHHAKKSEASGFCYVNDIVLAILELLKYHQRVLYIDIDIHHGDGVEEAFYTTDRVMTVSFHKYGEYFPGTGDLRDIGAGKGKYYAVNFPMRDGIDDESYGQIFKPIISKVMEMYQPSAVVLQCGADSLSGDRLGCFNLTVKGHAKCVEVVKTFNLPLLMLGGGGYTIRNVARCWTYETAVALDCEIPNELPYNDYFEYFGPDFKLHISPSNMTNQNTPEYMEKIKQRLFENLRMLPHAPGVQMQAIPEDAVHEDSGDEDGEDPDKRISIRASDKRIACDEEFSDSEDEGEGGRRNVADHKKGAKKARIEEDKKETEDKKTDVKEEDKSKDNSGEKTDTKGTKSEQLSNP
UniProt P35222: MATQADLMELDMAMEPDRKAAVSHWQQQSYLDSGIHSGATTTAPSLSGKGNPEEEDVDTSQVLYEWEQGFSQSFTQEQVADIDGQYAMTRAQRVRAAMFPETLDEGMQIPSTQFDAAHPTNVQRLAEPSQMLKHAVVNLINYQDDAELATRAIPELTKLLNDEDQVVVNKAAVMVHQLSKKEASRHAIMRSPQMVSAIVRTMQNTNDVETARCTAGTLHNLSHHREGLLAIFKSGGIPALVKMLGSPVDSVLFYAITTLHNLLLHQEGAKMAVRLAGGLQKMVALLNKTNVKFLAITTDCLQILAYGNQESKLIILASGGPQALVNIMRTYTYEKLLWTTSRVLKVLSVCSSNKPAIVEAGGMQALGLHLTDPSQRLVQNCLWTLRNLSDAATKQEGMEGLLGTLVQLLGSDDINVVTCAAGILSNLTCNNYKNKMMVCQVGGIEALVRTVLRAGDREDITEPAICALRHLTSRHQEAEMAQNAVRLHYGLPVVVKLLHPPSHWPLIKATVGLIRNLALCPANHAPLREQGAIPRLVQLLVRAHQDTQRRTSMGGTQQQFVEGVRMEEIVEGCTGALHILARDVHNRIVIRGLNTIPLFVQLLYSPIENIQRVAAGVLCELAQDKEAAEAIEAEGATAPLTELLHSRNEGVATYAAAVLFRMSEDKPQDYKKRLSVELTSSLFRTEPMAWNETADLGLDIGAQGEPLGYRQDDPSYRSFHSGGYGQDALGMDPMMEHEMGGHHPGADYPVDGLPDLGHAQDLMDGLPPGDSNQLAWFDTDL
UniProt P25490: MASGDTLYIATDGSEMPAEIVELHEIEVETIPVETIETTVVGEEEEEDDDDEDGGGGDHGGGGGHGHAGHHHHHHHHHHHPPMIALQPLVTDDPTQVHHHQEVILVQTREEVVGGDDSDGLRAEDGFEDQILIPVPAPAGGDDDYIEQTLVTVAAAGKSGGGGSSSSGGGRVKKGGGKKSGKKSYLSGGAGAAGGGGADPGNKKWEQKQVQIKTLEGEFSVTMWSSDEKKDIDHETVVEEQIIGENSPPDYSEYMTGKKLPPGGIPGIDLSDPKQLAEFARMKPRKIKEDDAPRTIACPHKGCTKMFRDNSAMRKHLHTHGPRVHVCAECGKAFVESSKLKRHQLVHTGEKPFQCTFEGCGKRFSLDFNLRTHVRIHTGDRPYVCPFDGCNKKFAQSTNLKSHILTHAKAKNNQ

Assays:
Assay in all cases: co-IP; lysates of LNCAP and PC3 cells; immunoprecipitation with anti-p300, anti-HDAC2, anti-β-catenin, anti-FBXW2 or anti-IgG for 1 h, protein A/G agarose beads, Western blot
[1] = molecular target: p300 (human (endogenous in LNCAP and PC3)) (UniProt Q09472)
[2] = molecular target: histone deacetylase 2 (human (endogenous in LNCAP and PC3)) (UniProt Q92769)
[3] = molecular target: β‐catenin (human (endogenous in LNCAP and PC3)) (UniProt P35222)

| Molecule | binding [1] | binding [2] | binding [3] |
| --- | --- | --- | --- |
| YY1 (from UniProt P25490 1-414) | binds | binds | – |
| F‐box and WD repeat domain containing 2 (protein, UniProt Q9UKT8 1-454) MERKDFETWLDNISVTFLSLTDLQKNETLDHLISLSGAVQLRHLSNNLETLLKRDFLKLLPLELSFYLLKWLDPQTLLTCCLVSKQWNKVISACTEVWQTACKNLGWQIDDSVQDALHWKKVYLKAILRMKQLEDHEAFETSSLIGHSARVYALYYKDGLLCTGSDDLSAKLWDVSTGQCVYGIQTHTCAAVKFDEQKLVTGSFDNTVACWEWSSGARTQHFRGHTGAVFSVDYNDELDILVSGSADFTVKVWALSAGTCLNTLTGHTEWVTKVVLQKCKVKSLLHSPGDYILLSADKYEIKIWPIGREINCKCLKTLSVSEDRSICLQPRLHFDGKYIVCSSALGLYQWDFASYDILRVIKTPEIANLALLGFGDIFALLFDNRYLYIMDLRTESLISRWPLPEYRKSKRGSSFLAGEASWLNGLDGHNDTGLVFATSMPDHSIHLVLWKEHG | – | – | binds |
